Sequences of proteins named here, by UniProt entry; tags and fusion partners are left off. A change or cut given only in a name is not applied to a line headed by its entry.
UniProt A0A0U1RR32: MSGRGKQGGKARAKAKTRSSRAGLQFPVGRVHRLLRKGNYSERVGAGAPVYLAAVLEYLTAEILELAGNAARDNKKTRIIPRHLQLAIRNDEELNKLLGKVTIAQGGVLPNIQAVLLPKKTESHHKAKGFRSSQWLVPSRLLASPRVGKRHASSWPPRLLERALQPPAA

According to article PMC12548456:

Molecular target: T1, GFP-U65 (HHV-6B tegument protein U65, GFP-tagged) (HHV-6B) (UniProt Q9QJ19)
T1 sequence: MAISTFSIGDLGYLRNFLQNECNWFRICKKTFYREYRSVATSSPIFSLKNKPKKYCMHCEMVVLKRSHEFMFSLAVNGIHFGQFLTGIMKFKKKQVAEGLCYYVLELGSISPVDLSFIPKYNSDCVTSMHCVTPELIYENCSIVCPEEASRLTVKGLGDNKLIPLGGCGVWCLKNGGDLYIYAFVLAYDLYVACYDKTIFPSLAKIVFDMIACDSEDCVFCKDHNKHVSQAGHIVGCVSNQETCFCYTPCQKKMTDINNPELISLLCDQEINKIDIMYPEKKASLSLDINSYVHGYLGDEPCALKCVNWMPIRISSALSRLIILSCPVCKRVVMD
Assay: affinity purification with mass spectrometry; GFP or GFP-U65 expressed in 293T cells; lysate (10 mM Tris-HCl pH 7.5, 150 mM NaCl, 1% NP-40) incubated with GST-tagged anti-GFP nanobody at 4°C overnight, washed 10 times; LC-MS of the co-precipitated proteins

For “Histone H2A (hCG_2039566), endogenous (from UniProt A0A0U1RR32 1-169)”, the binding was “binds”.

These are yes or no findings as the source states them, for the method shown. In cells and extracts the contact can be indirect. Here binding means that the protein was enriched with, or labelled near, the bait; the list need not be complete. Where a sequence is shown, tags or fusion partners need not be part of it.
